Measured values reported in PubChem BioAssay AID493014 (National Center for Advancing Translational Sciences (NCATS), 2011).
This is one part of the list. The main result of the screen is listed elsewhere. These columns were measured beside it and carry no call. Compounds called inactive in the main read-out are mostly missing here. Words in brackets tell the shape of the fitted curve; partial curves, single points and poor fits give uncertain potencies.

Test: qHTS Assay to Find Inhibitors of Chronic Active B-Cell Receptor Signaling
Conditions: ABC-DLBCL IkBa-CBG/CBR reporter, luminescence ratio (green luciferase fused to IkBa over red control in TMD8 lymphoma cells), 4 h
Procedure, shortened: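 TMD8 human ABC-DLBCL cells with doxycycline-inducible IκBα–green luciferase fusion and unfused red luciferase, in 0.5% FBS medium; compounds up to 46 uM, 4 h at 37C. Green/red luminescence ratio, filter-overlap corrected, fitted to concentration-response curves.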

[1] = measured here: CBR red luminescence, cell number
[2] = measured here: IkBa-CBG green luminescence

Structure (SMILES)	AC50 [1]	AC50 [2]
Cc1cc2nc(SCCOC(=O)Nc3ccccc3)nc(C)c2cc1C	2.91 µM [rising, full curve]	–
CC1CCN(c2ccc(C(=O)NCc3cccs3)cn2)CC1	7.94 µM [falling, partial curve, poor fit]	–
CC1=NN(C(=O)COc2ccc(C)c(C)c2)C(O)(c2ccc(Cl)cc2)C1 (stereo not drawn)	18.4 µM [falling, single point]	–
CC(C)CC(OC(=O)c1ccco1)C(=O)NCC1CCCO1 (stereo not drawn)	5.62 µM [rising, full curve, poor fit]	–
O=C(c1ccc(OC2CCN(CCc3ccccc3)CC2)cc1)N1CCCC1	14.1 µM [rising, single point]	–
Nc1cc(=O)[nH]c(SCC(=O)Nc2cc(Cl)ccc2Cl)n1	6.31 µM [falling, single point]	–
COc1ccc(OC)c(-n2c(=O)c3ccccc3c3ccccc3c2=O)c1	16.4 µM [falling, single point]	–
Cc1cc(C)nc(SCCCn2c(=O)[nH]c3ccccc32)n1	7.94 µM [falling, partial curve]	–
Cc1ccc(NC(=O)NCc2cccnc2)cc1Cl	22.4 µM [falling, single point]	–
CNC(=O)c1[nH]cnc1C(=O)Nc1ccc(F)cc1	6.31 µM [falling, full curve]	–
Cc1cccc(NS(=O)(=O)c2cc(C(=O)OCC(=O)Nc3cc(C)on3)ccc2C)c1	20.6 µM [falling, partial curve]	–
CCOC(=O)c1c(NC(=O)CSc2nc3ccccc3s2)sc(C(C)=O)c1C	0.447 µM [falling, full curve, poor fit]	–
CC1CCC(NC(=O)c2ccc(/C=C3\Oc4ccccc4N(C)C3=O)cc2)CC1 (stereo not drawn)	16.4 µM [falling, partial curve]	–
CCCC(C)C(=O)Nc1ccccc1C(=O)OCC (stereo not drawn)	0.517 µM [rising, full curve, poor fit]	–
CCCc1nc(N)nc2c1C(=O)CC(C)(C)C2	6.31 µM [falling, single point]	–
CCCCCCCn1ccc(O)c(CC(=O)OC)c1=O	35.5 µM [falling, single point]	–
CC(C)C(=O)Nc1ccc(O)c(-c2csc(N)n2)c1	3.98 µM [falling, full curve]	–
COc1ccccc1CCNC(=O)C(=O)c1cn(CC(=O)N2CCCC2)c2ccccc12	7.94 µM [falling, partial curve, poor fit]	–
O=C1NC(=O)C2(COC3(CCCC3)OC2)S1	–	4.61 µM [rising, partial curve, poor fit]
Cc1ccc2nc(-c3ccccn3)[nH]c2c1	35.5 µM [falling, single point]	–
COc1ccc(C(CC(=O)Nc2cc(C)ccn2)N2Cc3ccccc3C2=O)cc1 (stereo not drawn)	15.8 µM [falling, single point]	–

Structure (SMILES)	AC50 [1]	AC50 [2]
COc1cc(/C=N/NC(=O)c2cc3ccccc3cc2O)ccc1OCCN1CCCCC1	13 µM [falling, partial curve, poor fit]	–
Cc1c(O)ccc2c(-c3ccccc3)cc(=O)oc12	15.8 µM [falling, single point]	–
CCOc1ccccc1NC(=O)C(=O)NCCc1sc2nc(-c3ccc(OC)cc3)nn2c1C	15.8 µM [falling, partial curve, poor fit]	–
Cc1nn2c(N3CCCC3)cc(C(C)C)nc2c1-c1ccccc1	1.78 µM [rising, partial curve, poor fit]	–
Clc1ccc(Nc2nc3cccnc3s2)cc1	0.562 µM [rising, full curve]	–
O=C(COc1ccccc1)NCc1ccccc1	32.6 µM [rising, single point]	–
O=C(COC(=O)/C=C/c1ccccc1Cl)Nc1cccnc1Cl	0.92 µM [rising, full curve]	–
O=C(CN(Cc1ccccc1Cl)S(=O)(=O)c1ccc(Cl)cc1)N/N=C/c1ccc(C(=O)O)cc1	6.31 µM [falling, partial curve]	–
COc1ccc(C(=O)NC(C)CCc2ccccc2)cc1[N+](=O)[O-] (stereo not drawn)	12.6 µM [rising, partial curve, poor fit]	–
CCOc1ccc(CN2CCN(Cc3cn(CC)nc3C)CC2CCO)cc1 (stereo not drawn)	5.62 µM [rising, single point]	–
CCN1CCCC1CNCc1cc(OC)c(OC)c(OC)c1 (stereo not drawn)	6.51 µM [falling, single point]	–
COc1ccc(C2=NN(C(C#N)c3ccc(OC)cc3)C(c3ccccc3)C2)cc1 (stereo not drawn)	0.411 µM [rising, full curve, poor fit]	–
CC1CCCC(C)N1C(=O)c1cccc2c1-c1ccccc1/C2=N/O (stereo not drawn)	7.31 µM [falling, partial curve, poor fit]	–
CN(Cc1ccccc1)C1=CC(=[N+]2CCCCC2)CC(C)(C)C1	10 µM [falling, partial curve]	–
COc1ccc(-c2cc(C(=O)N3CCN(c4ccccc4)CC3)c3ccccc3n2)cc1OC	29.1 µM [falling, single point]	–
O=C(NCc1cccc(Cl)c1)c1ccco1	6.51 µM [rising, single point]	–
CC(C)(C)C(=O)NC(=S)NNC(=O)c1ccc(-c2ccccc2)cc1	11.2 µM [rising, partial curve, poor fit]	10 µM [falling, partial curve]
N#CC1=C(N)N2C(=C(C#N)C1c1cccc(Br)c1)Nc1ccccc12 (stereo not drawn)	5.8 µM [falling, full curve, poor fit]	–
COc1ccccc1C1=NNC(=NCc2ccccc2)SC1	0.112 µM [falling, full curve, poor fit]	–
COC(=O)C1=C(C)NC(=S)NC1c1ccc(OCC(=O)N2CC(C)OC(C)C2)c(OC)c1 (stereo not drawn)	9.2 µM [rising, partial curve, poor fit]	–
Cc1cc(C)c(C#N)c(OCC(=O)c2ccc(Br)cc2)n1	2.51 µM [rising, full curve, poor fit]	–

Arranged by number of heavy atoms (low to high): some entries from above.
Structure (SMILES)	AC50 [1]	AC50 [2]
O=C(NCc1cccc(Cl)c1)c1ccco1	6.51 µM [rising, single point]	–
O=C(COc1ccccc1)NCc1ccccc1	32.6 µM [rising, single point]	–
CCCC(C)C(=O)Nc1ccccc1C(=O)OCC (stereo not drawn)	0.517 µM [rising, full curve, poor fit]	–
CCCCCCCn1ccc(O)c(CC(=O)OC)c1=O	35.5 µM [falling, single point]	–
COc1ccccc1C1=NNC(=NCc2ccccc2)SC1	0.112 µM [falling, full curve, poor fit]	–
O=C(COC(=O)/C=C/c1ccccc1Cl)Nc1cccnc1Cl	0.92 µM [rising, full curve]	–
COc1ccc(C(=O)NC(C)CCc2ccccc2)cc1[N+](=O)[O-] (stereo not drawn)	12.6 µM [rising, partial curve, poor fit]	–
CC(C)(C)C(=O)NC(=S)NNC(=O)c1ccc(-c2ccccc2)cc1	11.2 µM [rising, partial curve, poor fit]	10 µM [falling, partial curve]
CCOc1ccc(CN2CCN(Cc3cn(CC)nc3C)CC2CCO)cc1 (stereo not drawn)	5.62 µM [rising, single point]	–
CC1CCC(NC(=O)c2ccc(/C=C3\Oc4ccccc4N(C)C3=O)cc2)CC1 (stereo not drawn)	16.4 µM [falling, partial curve]	–
Cc1cccc(NS(=O)(=O)c2cc(C(=O)OCC(=O)Nc3cc(C)on3)ccc2C)c1	20.6 µM [falling, partial curve]	–
COc1ccc(-c2cc(C(=O)N3CCN(c4ccccc4)CC3)c3ccccc3n2)cc1OC	29.1 µM [falling, single point]	–
